Reference: PubChem BioAssay AID1347423 (Functional Genomics Laboratory (NCATS/FGL), 2020)
The whole screen tested about 52,000 sequences, of which about 210 (0.4%) were called active.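 The calls were made as follows: active = gene whose silencing raises cell survival under the drug, median off-target-corrected z-score across its silencing RNAs 2 or more; inactive = the rest.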 The list shows a part of the results.

experiment: Resistance to Poly (ADP-Ribose) Polymerase inhibitor: Gene Identification via Genome-wide siRNA Screen; details: mouse BRCA2 R2336H ES cells, olaparib, CellTiter-Glo viability; active compounds read high
In short: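 Mouse BRCA2 R2336H ES cells were reverse-transfected with siRNA (20 nM final), treated at 48 h with 500 nM olaparib, and read by CellTiter-Glo after 72 h. Scores: MAD-based z per siRNA, median per gene, seed off-target correction.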

Row | Sequence | z-score
1 | GGCAAUGAGAUCAGUCCACTT against Gzmc | inactive: -0.078
2 | CCAAAGAUACCAUAGGAUUTT against BC036563 | inactive: 1.63
3 | GGAAGAAGUAGACCUGUCUTT against 0610011L14Rik | inactive: -2.12
4 | GGAUCAGAAGAAGUUUAUUTT against Parn | inactive: 0.837
5 | GGAAUUGAAUGGAAAGUGUTT against Ggta1 | inactive: -0.934
6 | GGAAUCAACGGAUGAAAUUTT against 4732493F09Rik | inactive: -1.16
7 | GGUCUAUGAGAUGUUUUCUTT against Cyp2a4 | inactive: 0.123
8 | GGGUAGCUACGAAGAGGAATT against Ros1 | inactive: -0.158
9 | GGUUCUCAUGUUGUUGGCUTT against 1600014C10Rik | inactive: -0.116
10 | CGAGAGUAGCUUGUUGCUGTT against Rhobtb3 | inactive: 0.999
11 | GCACAACAUUAAAUGCAGATT against Hspa4 | inactive: -0.25
12 | GGAAGAAACUAACCACAACTT against Zfpn1a1 | inactive: 0.351
13 | GGAGUGAAGACUUUGAGAATT against Kcnn2 | inactive: -0.234
14 | GGUGAAGUCCAGUAAUAAGTT against Nfrkb | inactive: 0.449
15 | CCUCAUCAAAAUUUACCAUTT against Msr2 | inactive: -0.388
16 | GGGACUCCUCAAUGCUUAUTT against Nxf3 | inactive: 0.0566
17 | GGAAACUCGUACUUUAUCATT against Igf2r | inactive: 1.13
18 | CCACUGUUAUCAAGAUCCCTT against Olfr1176 | inactive: -0.0434
19 | GGAACAUCUAUUUGUCAUGTT against Olfr310 | inactive: -0.42
20 | GGAUAGUCUCCUCAAAGAATT against Rg9mtd3 | inactive: -1.71
21 | GCUGGAAAAAAAGUUGGAUTT against Diap1 | inactive: 0.155
22 | GGUAGUGGUACACCUUAAGTT against Ctsc | inactive: -1.94
23 | GGACAACACUAUCAACAAATT against 1700028P05Rik | inactive: 1.43
24 | GGAGCAUAUAUAGAAUUAGTT against Mrps22 | inactive: 0.698
25 | GGGUAUGUGAGUUGGAAGATT against Inpp4a | inactive: -0.123
26 | CGACAGACAUCGCUAUAAUTT against Flj39647 | inactive: -2.11

Row | Sequence | z-score
27 | CCGCAUGUUUGGAAAGGAUTT against Cabp4 | inactive: 0.0393
28 | GGAUUCUGCCCAAUGAGGATT against Inpp5d | inactive: -1.43
29 | GGUGUUGUUGCUGAUACCUTT against Rbms3 | inactive: 0.807
30 | GGUCAAGUCAUCAGAAAUGTT against 4632417N05Rik | inactive: 0.787
31 | GUACUAGCUAAUUGGGCCATT against Speer4b | inactive: -0.0527
32 | GGUGAAAACCCUAACAGUCTT against A130007F10Rik | inactive: 0.653
33 | GGGAAACAGCAAAAUGAAATT against Bcas1 | inactive: 0.465
34 | GGAAUAGCAUAAACACAGUTT against Epm2aip1 | inactive: 1.37
35 | GCAGUAUGCACACCUGGAGTT against BC002230 | inactive: 0.318
36 | GCUACAUGGGCCUCACAUATT against 1700008E09Rik | inactive: -1.12
37 | GCUAUCGGCGUGAGUAACCTT against Gk2 | inactive: 1.17
38 | GGAAAAAAUCAAGAACAUCTT against Tmc2 | inactive: 0.101
39 | GGAGAAGUUCAAAGUGAGGTT against B3gnt3 | inactive: 0.554
40 | GGACAAAAACAAACAUGAGTT against E030013G06Rik | inactive: 0.548
41 | CCUAUGCUUUUUUGUAAGATT against Il13ra2 | inactive: 0.29
42 | GGAAAGACACAAGUGGAAATT against 5330421F07Rik | inactive: 1.54
43 | GGUCUUCAUACCUGUUCUATT against Zik1 | inactive: 0.218
44 | CCAAGAUAGUCCCUAUCCCTT against Scamp3 | inactive: 0.00183
45 | GGAAAUUGUUUGAGAGGUATT against Edn3 | inactive: -0.925
46 | GCGAGUUGCUCUACGUCAUTT against Rfrp | inactive: 1.19
47 | CCACAUGUUCAGUUCUAAATT against Ddhd1 | inactive: 0.875
48 | GGUUUUGAGCCUCAAAAAATT against Col6a2 | inactive: -0.6
49 | GGAAUAGAAGCACUGUGUGTT against Brs3 | inactive: -1.37
50 | GGAAGAGAUAAUGAACUUCTT against Dspp | inactive: 0.814
51 | GGAAAGUUGAUUCUUGUGUTT against Bmpr1a | inactive: 0.227
52 | GCUUGUUCAGGAAAUGAAATT against C630016B22Rik | inactive: -0.39

Row | Sequence | z-score
53 | GGCAGAUGAUCCCGGGAUUTT against 4933402J24Rik | inactive: -2.24
54 | GACUAGAACAACAGAAAGUTT against Vax2 | inactive: 1.24
55 | GCAGCGGAGGGUCAAAGAATT against A030010B05Rik | inactive: -1.1
56 | GGGCCAAUUCAACUUUGAUTT against Umpk | inactive: -0.682
57 | GGAUAAACGGGACAAAGCATT against Hcls1 | inactive: 0.746
58 | CCUGAUUCUUGUCAAAAACTT against MGC92959 | inactive: 0.235
59 | GGCAAAGUAGAAGCUAAACTT against Pycrl | inactive: 1.88
60 | CCUUUUUCAUUGGCUGCCCTT against Psors1c2 | inactive: -0.895
61 | GGAUCUGCUGAAUAAGUGCTT against 1500011H22Rik | inactive: -1.37
62 | GGCAGAAAUGAAAACACUUTT against 2610524G09Rik | inactive: -0.553
63 | CCGGCAUUUACCAUAAUAATT against Mcm2 | inactive: -2.17
64 | GGUUGCAUUGGGAACUUUCTT against Kai1 | inactive: -1.21
65 | GCGAACAACAAUGCUUAAATT against Mga | inactive: 0.92
66 | CGGACUUGUUUUUUAGUCUTT against Zfp469 | inactive: -0.127
67 | GGCCUUGUAGGAAGCAUUGTT against Slc37a4 | inactive: -0.0475
68 | GGUGUAUGUCACCCUGACCTT against Sag | inactive: 0.889
69 | GGAGGACCAAGAGGACAUUTT against Tbl3 | inactive: -2.19
70 | GCCAGUGGAUGUUCAGAAUTT against 4931417A20 | inactive: 0.611
71 | GGCAGUUUGAGAUUGUGUCTT against Thbs2 | inactive: -0.244
72 | GGAAUUAACAGAGAAGAAATT against Rgs13 | inactive: 0.323
73 | GGAGCUGGAUUCAUUGACGTT against Chi3l4 | inactive: 0.804
74 | GGUGGAGACACUGAAGGUUTT against Akap1 | inactive: -2.34
75 | GGGAAAUUGGUGCUACAUGTT against Eln | inactive: 0.281
76 | GGGACGACCAUAUUUAUUUTT against Psma2 | inactive: -1.94
77 | GGGUCAUUGAUAUCUUAAGTT against Bcl3 | inactive: -1.36
78 | GCUCAAACAGAUACACGGATT against Ap2a2 | inactive: 0.288

Row | Sequence | z-score
79 | GGAUGACAAGGUUAAGCUATT against D130060C09Rik | inactive: 0.214
80 | GGUACGCUCCAGGAAUAUCTT against 2400003N08Rik | inactive: -2.21
81 | GGACUUCCUAAGCAACUCATT against Mycs | inactive: -0.994
82 | GGAAACCAACUUCAGCCUGTT against Gfra1 | inactive: -0.491
83 | CCUUCCACAAAUACUCAGGTT against S100a4 | inactive: 0.151
84 | GGCUGCAAGGACAAGAGAATT against 1600002K03Rik | inactive: -1.51
85 | CCAGUUUAUCACAUAACCUTT against Wasl | inactive: 0.101
86 | GCUGUCUCAAUCACCCUAATT against Olfr1427 | inactive: -0.472
87 | CCAAAGUAUGCACUUUACATT against AA959934 | inactive: -0.799
88 | GUCAAAUGGAGCAGAGCCATT against 1700009B20Rik | inactive: -1.27
89 | GCCGUCUUGUGUGUAUCAATT against Olfr1342 | inactive: 0.00416
90 | GCUGAAAUCAGAAGCUAACTT against Casc3 | inactive: 0.845
91 | GGGAGAUGUUUGUUUUCAATT against Mmp16 | inactive: 0.314
92 | CGGCAGAUACUGAUACUGCTT against Actn1 | inactive: 1.4
93 | UUCACUUUUUCACUGGAAUTT against Olfr1228 | inactive: 0.817
94 | CCAUCUUGAAUUACCUCCGTT against Tnfaip1 | inactive: -1.5
95 | GGAUGAAGAUGGAGAUCUUTT against Tfg | inactive: 0.194
96 | GGAUUCUGCUAGCAGUUCATT against Csng | inactive: -3.24
97 | GGACUCCCUUACUUUAUUATT against Mertk | inactive: 0.525
98 | GGUAACAGUCCUGAAAUACTT against 2010321J07Rik | inactive: -0.351
99 | GCCUAACCUGCAUCAGUCATT against Olfr689 | inactive: 0.358
100 | GGCUACGCUGACUAUGUCUTT against Creg | inactive: 0.619
101 | GGUAGCUAAGAAGUUUAUUTT against Dck | inactive: 0.358
102 | CCCGUCCUCUCAAAAACUATT against Bcl2l14 | inactive: 0.021
103 | UGUGACUAUUGUUACUGUGTT against Olfr1512 | inactive: 0.039
104 | GGCAGAGACAAAGAAACUUTT against Trap1 | inactive: -0.655
